Assay results: patent publication US20210355418A1, “ELECTRODE HAVING NANO STRUCTURE AT TIP” (Ion Chat Research Corporate, priority 2018, published 2021)
At least one structure is not confirmed: it was looked up by name or label, or the drawing left a doubt.

What was measured:
[1] = system: differentiated SH-SY5Y cells; assay: Intracellular potential measurement with Handynano electrode; type: cell-based, human; conditions: administered to extracellular fluid; cells differentiated with 10 μM RA for 10 days
[2] = system: cardiomyocyte-like cells (iCell Cardiomyocyte2); assay: Action potential recording of cardiomyocyte-like cells on conductive glass, charge amplifier (CHAMPL) mode; type: cell-based; conditions: final concentration 100 μM in physiological saline, room temperature
Procedure: Experiments were conducted using myocardial-like cells (iCell Cardiomyocyte2, CDI) as a typical example of cells with low adhesion efficiency to the surface of conductive glass. In order to improve the adhesiveness, the cells were cultured on the surface of conductive glass coated with collagen (Collagen) in a grid pattern in advance. Gold-coated magnetic nanoparticles were introduced into myocardial-like cells and penetrated the cell membrane by a magnetic field. Sodium channels were activated by sodium channel openers such as veratridine and the resulting action potentials were recorded. This experiment was performed at room temperature. […]
Next, using SLO, gold-coated magnetic nanoparticles were introduced into the cell. […] Two days later, the culture medium was replaced with physiological saline before the experiment, and the action potentials of the cells were recorded at room temperature using the charge amplifier mode (ChargeAmpLifier (CHAMPL) mode) (FIG. 10).
However, since the spontaneous action potential could not be observed in this sample (data not shown), Veratridine (Sigma-Aldrich), which acts as a sodium channel opener, was administered to a final concentration of 100 μM in physiological saline. […] Slow depolarization was observed 40 seconds after Veratridine administration, followed by spontaneous action potentials recorded (FIG. 11).

[3] = system: differentiated NG108-15 cells; assay: Intracellular potential measurement by Magele fixed by iron plate; type: cell-based; conditions: administered to extracellular fluid

COc1ccc(C(=O)O[C@H]2CC[C@@]3(C)[C@@H]4CC[C@H]5[C@]6(O)C[C@H](O)[C@@]7(O)[C@@H](CN8C[C@@H](C)CC[C@H]8[C@@]7(C)O)[C@]6(O)C[C@@]53O[C@]24O)cc1OC [Veratridine]
cell activation, action potential measured as intracellular potential change [1]: activated
evoked action potentials [2]: Action potentials evoked by veratridine were recorded
cell activation, action potential measured as intracellular potential change [3]: activated
